Measurements published in PubChem BioAssay AID1508600 (Functional Genomics Laboratory (NCATS/FGL), 2020).
Among all 53,000 sequences or so, about 3,700 (7%) were called active.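 Rule for the calls: active = gene knockdowns whose robust z-score for IL-1 alpha signal is at least 2 or at most -2, so actives lie on both sides; inactive = the rest.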 Some of the results follow.

Experiment: Components of the Cytosolic LPS Sensing Pathway: Gene Identification via Genome-wide siRNA Screen;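 note: robust z of the log signal after scaling to non-targeting control siRNA wells of the plate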
Settings: RAW264.7 macrophages, IL-1a HTRF, actives lie on both sides, screened at 100 nM (by protocol), cells primed 5 h with Pam3CSK4 first
In short: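 Supernatant IL-1a by HTRF from RAW264.7 cells primed with Pam3CSK4 (5 hours) and transfected with LipidA (24 hour) after 48h siRNA knockdown at 100 nM; cell viability checked with CellTiter-Glo.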

Sequence	z-score
GGAAAUUAAGUGAUUUGACTT against Ranbp10	inactive: -0.213
CCACCAUUCGGCUCUUUUGTT against Nupl2	inactive: -0.822
CGGUUACUUCAGAAAUCUATT against Tlr5	inactive: 1.42
GCUGUAUUCGCUGUGCCGUTT against St6galnac2	inactive: 1.51
GGGCAUUUUUACAGUUUUCTT against Chfr	inactive: 1.97
GUACGUCAUGGGUCACUUCTT against Pomc	inactive: -0.259
GCCAGUAAUCCAUACCGUGTT against C6	inactive: 0.115
GGACAAUUGGGCCAAACUGTT against Mpv17	inactive: 0.103
GGUCACAGAAUGAAUGACUTT against Htra2	inactive: -1.08
GGAUUCACGAGCAUAAGCUTT against 1700020D05Rik	inactive: -1.31
GCAGUGUCUAGGACAGUCATT against Pdcd5	inactive: 0.0243
GGGAAAGUCAGUUUAAAGATT against Baz1b	inactive: 0.26
GCCCUUGUGAUUCGAAAUGTT against Atp1a1	inactive: 1.39
GGAUUACUGUGCUUCUAAUTT against Olfr788	inactive: 0.743
GGUUUUGGGCAAAAUUGAGTT against Edf1	inactive: -0.899
GGUGGCAGUAUGAAUUCGATT against Serpina12	inactive: 1.2
GGCAAGAAAAAUCAGAUUGTT against Cyld	active: 3
GGCUCCCUUUUUUGUACUATT against Olfr1056	inactive: -0.463
GGAUCAAGAAAAGAUGAAATT against Galnt1	inactive: -0.858
CCAUUUGAUGACAGUAAUATT against Olfr178	inactive: 1.03
GGCAUUGAAGCUGAAAAGATT against Armt1	inactive: -0.00635
GGAGGCCUAUUUAAUGGAGTT against Dusp21	inactive: 1.1

Sequence	z-score
GGCAGACAAGUUCACAGUGTT against Igsf6	inactive: -1.38
CCUAACAAGGGAAUAAAUGTT against Icosl	inactive: -1.12
GCUCUAUGAGAGUAUAUUATT against Tamm41	inactive: -0.495
CCAUACUAUUUGCUUUUGCTT against Atg5	inactive: 0.127
GGCAAGACUGAGCAAGAUUTT against Catsper3	inactive: -1.05
GGAAAUCUCUUCAUGGAUATT against Kng1	inactive: -0.425
GGAAUUCAACUCAGAUAAGTT against C3	inactive: 0.338
CCUGGUUAGAGCAAGGAUGTT against Slc25a42	inactive: -0.145
GGACUUCAGCAAUGUCUUGTT against Rab17	inactive: 0.801
GGAAGUGUAAUGGAAGCAATT against Mdfic	inactive: 0.955
GGGAGUGAUGGUACCCUAUTT against Myf6	inactive: -0.598
GGGUUCUUUCACUGAACGATT against Pskh1	inactive: 0.9
CCCUGAAACAAUGAAUACATT against Serpini1	inactive: 0.325
GGCCACGUUACACGUACUUTT against Wnt3a	inactive: 0.123
GGACUGAAUUUACUCUUAATT against Scai	inactive: 0.485
GCUGGUGGCACUGAAGCUATT against Nme3	inactive: -1.48
GGACACCAAAGUGAAUACATT against Cdhr5	inactive: 0.122
GGCCAGAACUUAAAUUUUCTT against Nbr1	inactive: 0.658
GGCCAUCCUGGGCUAAAUATT against Abcb8	inactive: 0.626
CCGUGUUCUCUAUCCAGCATT against Slc7a9	inactive: -0.247
GGAAAGAAAGAGAAGAACATT against Phf21a	inactive: 0.177
GGCACAACUGAUUUUGAAATT against Ifngr2	inactive: -0.362

Sequence	z-score
GCUAAUGCUUGUUGAACACTT against Hpcal4	inactive: 1.54
GGAAGAAAAACUCUUGCACTT against Cdc5l	inactive: 0.292
GGGUAGAGGCCUUGAAAAUTT against Gps1	inactive: 1.26
CGACCAAGAGCAAAACGAUTT against Gm266	inactive: 0.97
GCUGGAAUACGGAAAAUGGTT against Gbe1	inactive: -1.56
CCAUUAUGAAGAAGCUGUUTT against Rilpl2	inactive: -0.138
GGCUUACAAAAAGUACAUCTT against Tpt1	active: 4.36
GGUAGAAGAGGAAUCUUGGTT against Pitpnm1	inactive: -1.3
CGGUCAUUUACGAGAUACCTT against Pdgfa	inactive: 0.462
GGCCUUCAAGUGCAUGAUGTT against Yaf2	inactive: -1.65
GCUAAGCUGGAUCCAUAAUTT against Gm11545	inactive: 1.35
CCAUGAGACAAGAUUUAGATT against Olfr818	inactive: -0.751
CCAUGUAAGAUGUUAAGUATT against Abcb1a	inactive: -0.265
CCGGAUGUGCCUUGUCUACTT against Ckap5	inactive: -1.58
GGAAGAAGGCUAUAAGAAATT against Galnt6	inactive: 0.515
GCCCUUAACAGAAAAACUATT against Hmgcl	inactive: -0.589
GGCAAGCCAGAGAAACUGATT against Rbm42	active: 6.18
GGCUGUUACUCUCUCUCUCTT against Ly6g6g	inactive: 1.16
CCGGAUUAAUGAUGCAAUGTT against Coq9	inactive: -0.499
GGAUCUCCGGACAUUUAAGTT against Col28a1	inactive: 1.96
GGACUGAUUGUUUUAUGCUTT against Gdap10	inactive: -1.06
GCACAUUGGCAUUGUGUAUTT against Pdxk	inactive: 0.952

7 entries picked at random from the list so far, as already listed:
Sequence	z-score
GCCCUUAACAGAAAAACUATT against Hmgcl	inactive: -0.589
GGUAGAAGAGGAAUCUUGGTT against Pitpnm1	inactive: -1.3
GCUAAUGCUUGUUGAACACTT against Hpcal4	inactive: 1.54
GGAAGAAAAACUCUUGCACTT against Cdc5l	inactive: 0.292
GGCCUUCAAGUGCAUGAUGTT against Yaf2	inactive: -1.65
GGCUUACAAAAAGUACAUCTT against Tpt1	active: 4.36
CCAUGAGACAAGAUUUAGATT against Olfr818	inactive: -0.751

Next results follow:

Sequence	z-score
CGAGUUCCACAGUGAAAUATT against Cyp2c70	inactive: -1.36
GGGAUUGAGGGAGAUUUUCTT against Tedc2	inactive: -0.206
GCCAAUUGAGUCGUCUAUCTT against Rps6ka1	active: 2.41
GCAUCCUUGACCGAUACUATT against Psmb2	active: -2.78
GCGGUGCUGUUUUCCUUAUTT against Dpagt1	inactive: -0.544
GGCAGGGUAGCCAAACAAATT against Cenpt	inactive: -1.45
GGACAUCAACAUUAUCACUTT against Chn1	inactive: -1.42
GGGUUGCCAUCGAGACAAGTT against Nelfe	inactive: 0.823
CGAUCCAUUUCCUUACGACTT against Cyp20a1	inactive: 0.233
GGCUUUCGCCUGAUUGGGUTT against Rhbdl2	inactive: -0.707
GGCUCUUUGAUCACCAUUGTT against Fam210a	inactive: -0.903
GGAGAGUACUAAAUUUAAGTT against Dcaf17	inactive: 1.87
GCCAAGUGGGACAAAUUCGTT against Dync2h1	inactive: -1.59
GGCAAAAUAAGGAGCUAGATT against Itpkc	inactive: -0.228
CCAUGGUCCUUGUCGUCAUTT against Kir3dl1	inactive: 0.315
GGCCUGUAAAAACUAUUGGTT against Mcpt4	inactive: 0.122
CGAAUGUUCGAGGUUUAUUTT against Ctdspl	inactive: 1.06
GCCUUUGCGCAAAAUGGUCTT against Zfp933	inactive: -0.073
CCCUUUAUUAUUCCACUGUTT against Olfr530	inactive: -1.12
GGAGCUCAUUAGCAAAUAUTT against Olfm5	inactive: -0.859
GGAACAACUUUCAUCUCACTT against Anxa10	inactive: 1.34
GCGGUACAACCAAAAAGACTT against Krt72	inactive: 0.143

Sequence	z-score
GGGACAAUUGGAAAGGCGATT against Wdr55	inactive: 0.507
GGCAGAGAAAAGGACCUUUTT against Mcts2	inactive: -1.32
GGACUCUAAGUUGUGAAUUTT against Pten	inactive: -0.351
GGUGCCAACUUUAAAAGCUTT against Zbtb14	inactive: 0.937
GGAAAAGAAGAGGAUGGAGTT against Vpreb1	inactive: -1.61
UCUGCGCACUAAAUGCAUCTT against Olfr46	inactive: 0.612
GGCAAAAAGUCAUUGCCAATT against Slc26a9	inactive: 0.272
GCCUGGUCUCACUAUGUAGTT against Hpvc2	inactive: 0.129
GGUAGAGAAACCUAGUGUUTT against Map6	inactive: 0.218
GGACUUUCUGAGUAAGAAUTT against Coa8	inactive: -0.873
GCCAACCAUCUUUUGACAGTT against Inka2	inactive: 1.3
GCAACCAUUUAAGAAGACCTT against Tnfrsf9	inactive: -0.301
CCAGCUUUCAUUAACUUUATT against Ppp1r10	inactive: -0.571
GGUGAUGAAAAGAAUUGCATT against Pitrm1	inactive: 0.417
CCUGAGAAAACUUCUUACUTT against Maged1	inactive: -0.592
GCGUAUCAAGAAUUUGUCCTT against Mtus1	inactive: -0.9
GGAAAAAAACCGCUAUGUATT against Ptpra	inactive: -1.02
GGGAAGAUUUUUCUGAUCUTT against Kcnk13	inactive: -1.52
CCAAAAAGAGCGAUUACCCTT against Shc1	inactive: 0.368
